Screening data

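Malaria parasite (P. falciparum) lines kept in red blood cells; parasite DNA is measured by SYBR Green fluorescence after lysis, 72 h after compound addition. Each compound was titrated across a series from about 0.000037 to 29 µM. The number is the fitted AC50, the concentration giving a half-maximal change in signal; a lower value means higher potency, whether the curve shows a decrease or an increase. Calls follow the curve class and fit quality: every row here is inconclusive, covering signal-raising curves and weak, poorly fitted, partial or highest-dose-only inhibition curves.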

Values are in µM. All entries here are filed as inconclusive. These entries are mostly ones the record files as inconclusive; other results of the assay are not listed here. A potency from a partial, single-point or poor curve is only a rough figure. Some entries filed as inconclusive have a full curve.

{"smiles": "CNC(=O)Oc1ccc2c(c1)[C@]1(C)CCN(C)[C@@H]1N2C", "tested on / at": "CP269", "potency (µM)": "5.358", "curve": "inhibitor, partial curve"}
{"smiles": "CNC(=O)Oc1ccc2c(c1)[C@]1(C)CCN(C)[C@@H]1N2C", "tested on / at": "CP291", "potency (µM)": "5.358", "curve": "inhibitor, partial curve, poor fit"}
{"smiles": "CNC(=O)Oc1ccc2c(c1)[C@]1(C)CCN(C)[C@@H]1N2C", "tested on / at": "CP201", "potency (µM)": "3.793", "curve": "inhibitor, full curve"}
{"smiles": "CNC(=O)Oc1ccc2c(c1)[C@]1(C)CCN(C)[C@@H]1N2C", "tested on / at": "ICS", "potency (µM)": "11.22", "curve": "inhibitor, partial curve, poor fit"}
{"smiles": "CNC(=O)Oc1ccc2c(c1)[C@]1(C)CCN(C)[C@@H]1N2C", "tested on / at": "SC27B", "potency (µM)": "3.981", "curve": "inhibitor, partial curve"}
{"smiles": "CNC(=O)Oc1ccc2c(c1)[C@]1(C)CCN(C)[C@@H]1N2C", "tested on / at": "CP211", "potency (µM)": "8.492", "curve": "inhibitor, partial curve"}
{"smiles": "CNC(=O)Oc1ccc2c(c1)[C@]1(C)CCN(C)[C@@H]1N2C", "tested on / at": "CP203", "potency (µM)": "4.256", "curve": "inhibitor, full curve, poor fit"}
{"smiles": "CNC(=O)Oc1ccc2c(c1)[C@]1(C)CCN(C)[C@@H]1N2C", "tested on / at": "ATS95", "potency (µM)": "11.22", "curve": "inhibitor, single point"}
{"smiles": "CNC(=O)Oc1ccc2c(c1)[C@]1(C)CCN(C)[C@@H]1N2C", "tested on / at": "TAB113", "potency (µM)": "4.467", "curve": "inhibitor, partial curve, poor fit"}
{"smiles": "CNC(=O)Oc1ccc2c(c1)[C@]1(C)CCN(C)[C@@H]1N2C", "tested on / at": "CP329", "potency (µM)": "2.686", "curve": "inhibitor, partial curve"}
{"smiles": "CNC(=O)Oc1ccc2c(c1)[C@]1(C)CCN(C)[C@@H]1N2C", "tested on / at": "CP297", "potency (µM)": "0.2133", "curve": "inhibitor, partial curve, poor fit"}
{"smiles": "CNC(=O)Oc1ccc2c(c1)[C@]1(C)CCN(C)[C@@H]1N2C", "tested on / at": "CP262", "potency (µM)": "4.256", "curve": "inhibitor, single point"}
{"smiles": "CNC(=O)Oc1ccc2c(c1)[C@]1(C)CCN(C)[C@@H]1N2C", "tested on / at": "CP192", "potency (µM)": "2.686", "curve": "inhibitor, full curve, poor fit"}
{"smiles": "CNC(=O)Oc1ccc2c(c1)[C@]1(C)CCN(C)[C@@H]1N2C", "tested on / at": "CP217", "potency (µM)": "11.22", "curve": "inhibitor, single point"}
{"smiles": "CNC(=O)Oc1ccc2c(c1)[C@]1(C)CCN(C)[C@@H]1N2C", "tested on / at": "DIV30", "potency (µM)": "12", "curve": "inhibitor, partial curve"}
{"smiles": "CNC(=O)Oc1ccc2c(c1)[C@]1(C)CCN(C)[C@@H]1N2C", "tested on / at": "Dd2", "potency (µM)": "5.012", "curve": "inhibitor, single point"}
{"smiles": "CNC(=O)Oc1ccc2c(c1)[C@]1(C)CCN(C)[C@@H]1N2C", "tested on / at": "DIV14", "potency (µM)": "2.686", "curve": "inhibitor, partial curve"}
{"smiles": "CNC(=O)Oc1ccc2c(c1)[C@]1(C)CCN(C)[C@@H]1N2C", "tested on / at": "CP194", "potency (µM)": "3.013", "curve": "inhibitor, partial curve"}
{"smiles": "CNC(=O)Oc1ccc2c(c1)[C@]1(C)CCN(C)[C@@H]1N2C", "tested on / at": "CP215", "potency (µM)": "4.256", "curve": "inhibitor, full curve"}
{"smiles": "CNC(=O)Oc1ccc2c(c1)[C@]1(C)CCN(C)[C@@H]1N2C", "tested on / at": "CP325", "potency (µM)": "3.013", "curve": "inhibitor, partial curve"}
{"smiles": "CNC(=O)Oc1ccc2c(c1)[C@]1(C)CCN(C)[C@@H]1N2C", "tested on / at": "CP268", "potency (µM)": "6.012", "curve": "inhibitor, partial curve"}
{"smiles": "CNC(=O)Oc1ccc2c(c1)[C@]1(C)CCN(C)[C@@H]1N2C", "tested on / at": "AA1029", "potency (µM)": "17.78", "curve": "inhibitor, single point"}
{"smiles": "CNC(=O)Oc1ccc2c(c1)[C@]1(C)CCN(C)[C@@H]1N2C", "tested on / at": "CP305", "potency (µM)": "5.358", "curve": "inhibitor, partial curve"}
{"smiles": "COc1ccc2c(c1)OC(C)(C)C(c1ccccc1)C2c1ccc(OCCN2CCCC2)cc1", "stereo": "stereo unspecified", "tested on / at": "JCK", "potency (µM)": "11.22", "curve": "inhibitor, single point"}
{"smiles": "COc1ccc2c(c1)OC(C)(C)C(c1ccccc1)C2c1ccc(OCCN2CCCC2)cc1", "stereo": "stereo unspecified", "tested on / at": "CP329", "potency (µM)": "7.569", "curve": "inhibitor, partial curve, poor fit"}

Some entries from above, unchanged:

* CNC(=O)Oc1ccc2c(c1)[C@]1(C)CCN(C)[C@@H]1N2C [CP269] : potency 5.358 µM (inhibitor, partial curve)
* CNC(=O)Oc1ccc2c(c1)[C@]1(C)CCN(C)[C@@H]1N2C [TAB113] : potency 4.467 µM (inhibitor, partial curve, poor fit)

The results are deposited in PubChem (AID504749; NCATS, 2011).